PubChem BioAssay AID651647 (Sanford-Burnham Center for Chemical Genomics, 2012)
Some of the results follow.

assay: blockers of MT1-MMP proenzyme processing, primary screen, HT1080 RFP-PRO-GFP cells, GFP/RFP fluorescence (AID 651647); settings: GFP/RFP ratio fluorescence, overnight, RFP expression control read, at 20 µM
Procedure, shortened: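 Compound: 20 µM single dose, 1% DMSO / System: HT1080 RFP-PRO-GFP cells / Controls: DMSO and RFP-L50D-GFP cell wells / Read-out basis: GFP/RFP fluorescence ratio / Schedule: overnight compound exposure at 37 °C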

Row | SMILES | RFP signal change [%]
1 | N#CC1(Nc2ccccc2)CCN(CCc2ccccc2)CC1 | 5.15
2 | O=c1[nH]c2ccccc2n1C1CCN(C(c2ccccc2OC(F)(F)F)c2nnnn2C2CCCC2)CC1 (configuration not stated) | -9.46
3 | CCN1CCC(Nc2ccc(Cl)cc2)CC1 | 1.46
4 | CSc1ccc(C(=O)NCC2(N3CCOCC3)CCCCC2)cc1 | 4.4
5 | O=C(NCC1(N2CCCCC2)CCCCC1)c1cccc([N+](=O)[O-])c1 | -1.48
6 | O=C(NCC1(N2CCCCC2)CCCCC1)c1ccc(OC(F)F)cc1 | 6.22
7 | CC(C)(C)n1nnnc1C(c1ccccc1OC(F)(F)F)N1CCC(n2c(=O)[nH]c3ccccc32)CC1 (configuration not stated) | -9.6
8 | COc1cc(C(=O)NCC2(N3CCCCC3)CCCCC2)ccc1OC(F)F | 5.55
9 | O=C(NCC1(N2CCOCC2)CCCCC1)c1cc(=O)[nH]c2ccccc12 | 0.697
10 | CCCCn1nnnc1C(c1cccc2ccccc12)N1CCC(n2c(=O)[nH]c3ccccc32)CC1 (configuration not stated) | -9.55
11 | CN1CCN(CCOC(=O)C(O)(c2ccccc2)c2ccccc2)CC1 | -0.113
12 | COc1ccc(NC2CCN(C(=O)OC(C)(C)C)CC2)cc1 | 3.9
13 | CC(C)c1ccc(C(=O)NCC2(N3CCOCC3)CCCCC2)cc1 | 5.31
14 | O=C(NCC1(N2CCCCC2)CCCCC1)c1cccc(C(F)(F)F)c1 | -2.53
15 | CCC(c1nnnn1C(C)(C)C)N1CCC(n2c(=O)[nH]c3ccccc32)CC1 (configuration not stated) | -3.14
16 | O=C(NCC1(N2CCOCC2)CCCCC1)c1cc(F)c(F)cc1Cl | 2.25
17 | COc1cc(OC)c(C(=O)NCC2(N(C)C)CCCCC2)cc1OC | 5.17
18 | CCCCn1nnnc1C(c1ccnc2ccccc12)N1CCC(n2c(=O)[nH]c3ccccc32)CC1 (configuration not stated) | 0.307
19 | CC(C)c1ccc(NC2CCN(C(=O)OC(C)(C)C)CC2)cc1 | -14.6
20 | CCCCn1nnnc1C(c1ccccc1OC(F)(F)F)N1CCC(n2c(=O)[nH]c3ccccc32)CC1 (configuration not stated) | -18.2
21 | CN(C)c1cccc(C(=O)NCC2(N3CCCCC3)CCCCC2)c1 | 2.32
22 | COc1ccc(CN(CCCl)CCCl)cc1Cl | 1.54

Row | SMILES | RFP signal change [%]
23 | COc1ccc(C(c2nnnn2C2CCCC2)N2CCC(n3c(=O)[nH]c4ccccc43)CC2)cc1 (configuration not stated) | -0.942
24 | CCCOc1ccc(C(=O)NCC2(N(C)C)CCCCC2)cc1OC | 2.35
25 | Cc1ccc(C(=O)NCC2(N(C)C)CCCCC2)o1 | 8.54
26 | O=C(NCC1(N2CCCCC2)CCCCC1)c1cncc(Br)c1 | -0.379
27 | CN1CCC(Nc2cccc(F)c2)CC1 | 3.68
28 | Cc1cccc(NC2(C#N)CCN(Cc3ccccc3)CC2)c1 | 1.11
29 | CSc1ccccc1C(=O)NCC1(N2CCCCC2)CCCCC1 | 1.23
30 | CCC(c1nnnn1C1CCCC1)N1CCC(n2c(=O)[nH]c3ccccc32)CC1 (configuration not stated) | 0.981
31 | COc1ccc(C(=O)NCC2(N3CCCCC3)CCCCC2)c(OC)c1OC | 1.91
32 | CC(C)(C)OC(=O)N1CCC(N(C(=O)c2ccccc2)c2ccc(F)cc2)CC1 | -3.38
33 | COc1ccc(C(=O)NCC2(N3CCCCC3)CCCCC2)cc1 | 5.16
34 | CCCCn1nnnc1C(c1cccs1)N1CCC(n2c(=O)[nH]c3ccccc32)CC1 (configuration not stated) | -3.53
35 | CCCCn1nnnc1C(CC)N1CCC(n2c(=O)[nH]c3ccccc32)CC1 (configuration not stated) | 0.0545
36 | O=C(NCC1(N2CCCCC2)CCCCC1)c1cccs1 | 3.75
37 | O=C(NCC1(N2CCCCC2)CCCCC1)c1ccc(=O)[nH]c1 | -0.296
38 | COc1ccc(Cl)cc1C(=O)NCC1(N2CCOCC2)CCCCC1 | -2.96
39 | O=C(OC1CN2CCC1CC2)C1c2ccccc2Oc2ccccc21 (configuration not stated) | -3.82
40 | O=c1[nH]c2ccccc2n1C1CCN(C(c2cc3ccccc3o2)c2nnnn2C2CCCCC2)CC1 (configuration not stated) | -15.5
41 | N#CC1(Nc2ccccc2)CCN(Cc2ccccc2)CC1 | 0.995
42 | O=C(NCC1(N2CCCCC2)CCCCC1)c1ccc(Cl)s1 | 1.2
43 | CCCCn1nnnc1C(c1ccc(OC)cc1)N1CCC(n2c(=O)[nH]c3ccccc32)CC1 (configuration not stated) | -5.21
44 | CCOC(=O)N1CCC(Nc2ccc(OC)cc2)CC1 | 1.24

Row | SMILES | RFP signal change [%]
45 | Cc1cc(C)cc(N(C(=O)c2ccccc2)C2CCN(C(=O)OC(C)(C)C)CC2)c1 | -11.1
46 | O=c1[nH]c2ccccc2n1C1CCN(C(c2ccccc2OC(F)(F)F)c2nnnn2C2CCCCC2)CC1 (configuration not stated) | -16.9
47 | O=C(NCC1(N2CCCCC2)CCCCC1)c1ccc(Cl)nc1 | 3.69
48 | O=C(NCC1(N2CCOCC2)CCCCC1)c1cc2ccccc2o1 | 4.48
49 | COc1ccc(NC2CCN(CCc3ccccc3)CC2)c(OC)c1 | 0.281
50 | CCOC(=O)N1CCC(Nc2ccc(F)cc2)CC1 | 1.89
51 | O=C(NCC1(N2CCCCC2)CCCCC1)c1ccc(F)cc1 | 2.77
52 | O=P1(N(CCCl)CCCl)SCCCS1 | 4.63
53 | CCCCn1nnnc1C(c1cc2ccccc2o1)N1CCC(n2c(=O)[nH]c3ccccc32)CC1 (configuration not stated) | -22.1
54 | CCCCOc1ccc(C(=O)NCC2(N3CCOCC3)CCCCC2)cc1 | 0.988
55 | O=C1CCN(Cc2ccccc2)CC1 | 2.1
56 | CC(C)(C)n1nnnc1C(c1ccccc1)N1CCC(n2c(=O)[nH]c3ccccc32)CC1 (configuration not stated) | 1.19
57 | CCOc1ccc(C)cc1CN(CCCl)CCCl | -0.262
58 | COc1cc(C(=O)NCC2(N(C)C)CCCCC2)ccc1OC(F)F | 2.67
59 | CCOC(=O)N1CCC(Nc2cccc(C)c2)CC1 | -0.228
60 | O=c1[nH]c2ccccc2n1C1CCN(C(c2cccc3ccccc23)c2nnnn2C2CCCC2)CC1 (configuration not stated) | -9.66
61 | O=c1[nH]c2ccccc2n1C1CCN(C(c2ccccc2)c2nnnn2C2CCCCC2)CC1 (configuration not stated) | -10.3
62 | Fc1ccccc1NC1CCN(Cc2ccccc2)CC1 | 5.65
63 | Cc1ccc(C(=O)NCC2(N3CCCCC3)CCCCC2)o1 | 0.436
64 | Cc1ccc(NC2(C#N)CCN(Cc3ccccc3)CC2)cc1 | 3.03
65 | CCC(c1nnnn1C1CCCCC1)N1CCC(n2c(=O)[nH]c3ccccc32)CC1 (configuration not stated) | 0.0153
66 | CC(=O)N(c1ccccc1)C1CCNCC1 | -0.132

Row | SMILES | RFP signal change [%]
67 | COc1cccc(C(c2nnnn2C2CCCCC2)N2CCC(n3c(=O)[nH]c4ccccc43)CC2)c1OC (configuration not stated) | -19.6
68 | O=c1[nH]c2ccccc2n1C1CCN(C(c2ccnc3ccccc23)c2nnnn2C2CCCCC2)CC1 (configuration not stated) | -4.58
69 | COc1cc(OC)cc(C(=O)NCC2(N3CCCCC3)CCCCC2)c1 | 2.65
70 | Cn1c(=O)[nH]cc(N(CCCl)CCCl)c1=O | 4.83
71 | CN(C)c1ccc(C(=O)NCC2(N3CCCCC3)CCCCC2)cc1 | 4.35
72 | O=C(NCC1(N2CCCCC2)CCCCC1)c1ccco1 | 7.5
73 | CC(C)(C)n1nnnc1C(c1ccnc2ccccc12)N1CCC(n2c(=O)[nH]c3ccccc32)CC1 (configuration not stated) | -1.78
74 | COc1ccc(C(c2nnnn2C2CCCCC2)N2CCC(n3c(=O)[nH]c4ccccc43)CC2)cc1 (configuration not stated) | -12.9
75 | CCN1CCC(Nc2cccc(F)c2)CC1 | -2.55
76 | Cc1ccccc1NC1(C#N)CCN(Cc2ccccc2)CC1 | -2.02
77 | O=C(O)C1(Nc2ccccc2)CCN(Cc2ccccc2)CC1 | -2.58
78 | NN(c1ccccc1)C1CCN(CCc2ccccc2)CC1 | 4.06
79 | CC(C)(C)OC(=O)N1CCC(Nc2ccccc2)CC1 | -5.42
80 | CCCOc1ccc(C(=O)NCC2(N(C)C)CCCCC2)cc1 | -0.216
81 | O=c1[nH]c2ccccc2n1C1CCN(C(c2cc3ccccc3o2)c2nnnn2C2CCCC2)CC1 (configuration not stated) | -18.9
82 | CN1CCC(Nc2ccc(F)c(Cl)c2)CC1 | 5.15
83 | CCOc1ncccc1C(=O)NCC1(N2CCOCC2)CCCCC1 | -3.4
84 | CN1CCC(Nc2ccc(Cl)cc2)CC1 | 0.34
85 | COc1cccc(C(c2nnnn2C2CCCC2)N2CCC(n3c(=O)[nH]c4ccccc43)CC2)c1OC (configuration not stated) | -8.15
86 | COc1cc(OC)cc(C(=O)NCC2(N3CCOCC3)CCCCC2)c1 | -2.17
87 | COc1cccc(C(=O)N(c2cc(C)cc(C)c2)C2CCN(C(=O)OC(C)(C)C)CC2)c1 | -12.3
88 | CCC(CO)(C(=O)OC1CN2CCC1CC2)c1ccccc1 (configuration not stated) | -2.68

Row | SMILES | RFP signal change [%]
89 | O=c1[nH]c2ccccc2n1C1CCN(C(c2cccs2)c2nnnn2C2CCCCC2)CC1 (configuration not stated) | -7.05
90 | O=c1[nH]c2ccccc2n1C1CCN(C(c2ccnc3ccccc23)c2nnnn2C2CCCC2)CC1 (configuration not stated) | -4.77
91 | COc1ccc(C(=O)NCC2(N3CCOCC3)CCCCC2)cc1OC | -0.167
92 | COc1cc(C(=O)NCC2(N3CCOCC3)CCCCC2)cc(OC)c1C | -0.0903
93 | CCCCn1nnnc1C(c1ccccc1)N1CCC(n2c(=O)[nH]c3ccccc32)CC1 (configuration not stated) | 2.63
94 | O=C(NCC1(N2CCOCC2)CCCCC1)c1cc(Br)ccc1Cl | -1.58
95 | O=c1[nH]c2ccccc2n1C1CCN(C(c2cccs2)c2nnnn2C2CCCC2)CC1 (configuration not stated) | -2.79
96 | O=C(OC1CN2CCC1CC2)C1c2ccccc2C=Cc2ccccc21 (configuration not stated) | 5.53
97 | CCCCn1nnnc1C(c1cccc(OC)c1OC)N1CCC(n2c(=O)[nH]c3ccccc32)CC1 (configuration not stated) | -4.62
98 | COc1cccc(C(c2nnnn2C(C)(C)C)N2CCC(n3c(=O)[nH]c4ccccc43)CC2)c1OC (configuration not stated) | 1.77
99 | CCOC(=O)N1CCC(Nc2ccc(C)cc2)CC1 | 0.795
100 | N/C(=N\O)c1c(N)no[n+]1[O-] | 4.42
101 | N#Cc1ccc(C(=O)NCC2(N3CCCCC3)CCCCC2)cc1 | -1.35
102 | CC(C)(C)n1nnnc1C(c1cccc2ccccc12)N1CCC(n2c(=O)[nH]c3ccccc32)CC1 (configuration not stated) | -11.8
103 | CN(C)C1(CNC(=O)c2cccc(C#N)c2)CCCCC1 | 1.21
104 | CCCN1CCC(Nc2cc(OC)cc(OC)c2)CC1 | 3.97
105 | O=c1[nH]c2ccccc2n1C1CCN(C(c2ccccc2)c2nnnn2C2CCCC2)CC1 (configuration not stated) | -6.18
106 | Cc1cc(N(CCCl)CCCl)ccc1C=O | -1.64
107 | c1ccc(CN2CCC(Nc3ccccc3)CC2)cc1 | -1.15
